Reference: PubChem BioAssay AID2685 (National Center for Advancing Translational Sciences (NCATS), 2010)
About 2,100 (0.66%) of roughly 320,000 compounds were called active. The inconclusive results got no clear call from the source; some entries with a clear call stand among them for comparison. The call rests on the fitted dose curve; in most records, active means well fitted inhibition curve with a large enough effect in the signal ratio, with a control signal flat (not every such curve was filed as active); inconclusive means small, poorly fitted or top-dose-only effect, or effect the other way, or a change in a side signal; inactive means flat fitted curve, though single readings scatter; the % refers to the signal ratio. Potencies beside an inconclusive call are fits to weak or partial responses and may not hold up.

assay: qHTS Assay for Lipid Storage Modulators in Drosophila S3 Cells; details: BODIPY lipid droplet fluorescence, 18-24 h, cells fed with added oleic acid; lipid storage change, negative = inhibition: at 46.1 µM (top of the series) unless noted
Method in brief: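 Drosophila S3 cells got compounds at several concentrations plus oleic acid (400 uM solution). Laser-scanning cytometry with 488 nm excitation read lipid droplets at 500-530 nm and cells at 575-640 nm. Percent activity was relative to 20 uM Triacsin C.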
On the % scale 0 is the no-effect control and ±100 the full control effect; potency means the concentration at half of the fitted maximal effect.

Compound | lipid storage change, negative = inhibition | Potency
CN(C)C1(c2nnnn2CCOC(=O)Nc2ccc(Cl)cc2)CCCCC1 | inconclusive: -3.62% | 
Cc1ccc2c(c1)CC1(CN2C)C(=O)NC(=O)N(CCC2=CCCCC2)C1=O (stereo not drawn) | inconclusive: 65.7% | 
COc1ccc(NC(=S)NC(NC(=O)CF)C(Cl)(Cl)Cl)c([N+](=O)[O-])c1 (stereo not drawn) |  | inconclusive: 0.0052 µM [falling, full curve, poor fit]
Cc1ccc(OCCOc2cccc(C=C3C(=O)NC(=O)NC3=O)c2)c(C)c1 |  | inconclusive: 6.51 µM [activator, single point]
Cn1c(=O)oc2cc(S(=O)(=O)NCCN3CCN(c4ccccc4F)CC3)ccc21 |  | inconclusive: 0.13 µM [falling, full curve, poor fit]
Cc1cc(=O)[nH]c(CCl)n1 |  | inconclusive: 25.9 µM [activator, partial curve]
NC1=C(Br)C(=O)c2ccccc2C1=O |  | inconclusive: 18.4 µM [falling, partial curve]
Cc1ncc([N+](=O)[O-])n1CCOc1nonc1N | inconclusive: -33.2% | 
O=C(O)C(Cc1cnc[nH]1)NS(=O)(=O)c1ccc(Cl)cc1 (stereo not drawn) | inconclusive: -47.4% | 
O=C1NC(=O)C2(Cc3ccccc3N3CCCC32)C(=O)N1 (stereo not drawn) | inconclusive: -0.727% | 
COc1ccc(C(Nc2cccc([N+](=O)[O-])c2)P(=O)(OC(C)C)OC(C)C)cc1 (stereo not drawn) |  | inconclusive: 4.11 µM [activator, single point]
COc1ccc(OC)c(N2C(=O)/C(=C/c3ccco3)C(=O)NC2=S)c1 | inconclusive: -20% | 
c1cncc(CNC2=NCCCCC2)c1 | inconclusive: -37.3% | 
CCc1nnc(NS(=O)(=O)c2ccc(N=Cc3c(O)n(-c4ccccc4)c(=O)[nH]c3=O)cc2)s1 | inconclusive: -44.6% | 
CCN1CC=C(c2c[nH]c3ccccc23)CC1 | inconclusive: 49% | 
Cc1[nH]c2ccccc2c1C1=CCNCC1 |  | inconclusive: 29.1 µM [falling, single point]
O=C(c1ccccc1F)c1cn(CC(=O)N2CCCCC2)c2ccccc12 | inconclusive: 3.1% | 
OC(c1ccccc1)(c1ccccc1)c1ccncc1 | inconclusive: 3.59% | 
O=[N+]([O-])c1ccc(C2C3C(c4ccccc4)=NC4(CCCC4)N32)cc1 (stereo not drawn) |  | inconclusive: 2.31 µM [falling, partial curve]
COc1cccc(CCNCc2ccc(SC)cc2)c1 |  | inconclusive: 14.6 µM [activator, single point]
COc1ccccc1-n1c(O)c(C=NC2CC2)c(=O)[nH]c1=O | inconclusive: -15.9% | 
O=C1OC(c2ccc(Br)cc2)=N/C1=C\N1CC2CC(C1)c1cccc(=O)n1C2 (stereo not drawn) | inconclusive: 21% | 
CC(C)n1c(=O)c(C=Nc2ccc(Cl)cc2)c(O)n(Cc2ccco2)c1=O |  | inconclusive: 1.16 µM [rising, full curve]
Cn1cc(C(=O)OCC(=O)NC2(C#N)CCCC2)c2ccccc21 | inconclusive: 15% | 

Compound | lipid storage change, negative = inhibition | Potency
C[C@]12CC(=O)CC1CCC1C2CC[C@@]2(C)C1CC[C@@H]2O (stereo partly drawn) |  | inconclusive: 0.0146 µM [activator, full curve, poor fit]
COc1ccc(-n2c(O)c(/C=C3\C=Nc4ccc(Br)cc43)c(=O)[nH]c2=O)c(OC)c1 |  | inconclusive: 29.1 µM [falling, single point]
CN1CCN(c2ncnc(Cl)c2N)CC1 | inconclusive: 11.9% | 
O=C(Cc1ccccc1)OCCN1CCOCC1 |  | inconclusive: 6.51 µM [falling, single point]
O=C(COc1ccccc1)N1CCN(C/C=C/c2ccccc2)CC1 |  | inconclusive: 11.6 µM [activator, single point]
O=Cc1cn(Cc2ccccc2[N+](=O)[O-])c2ccccc12 |  | inconclusive: 29.1 µM [falling, single point]
O=C1CCCN1CC#CCN1CCCC1 | inconclusive: -32.1% | 
C/C(=N\NC(=O)c1ccncc1)c1c(O)n(Cc2ccccc2)c(=O)[nH]c1=O | inconclusive: 20.5% | 
Cn1cc([N+](=O)[O-])c(C(=O)Nc2ccc3c(C(F)(F)F)cc(=O)oc3c2)n1 | inconclusive: 0.0665% | 
Cc1ccccc1N1C(=O)NC(=O)/C(=C\c2ccc3c(c2)CCCN3Cc2ccccc2)C1=O |  | inconclusive: 14.6 µM [falling, partial curve, poor fit]
O=c1c2ccccc2nc(CSc2ncnc3nc[nH]c23)n1-c1ccccc1Cl | inactive: 0.377% | 
COC(=O)C1=C(c2c(C)noc2C)C[C@@H]2CC[C@H]1N2C(=O)NC1Cc2ccccc2C1 | inconclusive: -2.07% | 
O=P(Oc1ccccc1)(Oc1ccccc1)C(Nc1ccccc1)c1ccccc1 (stereo not drawn) | inconclusive: 1.73% | 
CC(=O)c1cccc(NC2=NCC(C)S2)c1 (stereo not drawn) |  | inconclusive: 2.31 µM [activator, partial curve]
CC1CC(C)CN(C(=O)COC(=O)c2cn(C)c3ccccc23)C1 (stereo not drawn) | inconclusive: -5.13% | 
O=C1NC(=S)NC(=O)C1=Cc1ccc2c(c1)CCN2CCCCl |  | inconclusive: 0.651 µM [falling, single point]
Nc1cc(N2CCNCC2)ccc1[N+](=O)[O-] | inconclusive: 2.76% | 
Cc1cccc(NC(=O)OC2CN3CCC2CC3)c1 (stereo not drawn) | inconclusive: -8.17% | 
Cc1ccc(C2N3CCCN23)cc1 (stereo not drawn) | inconclusive: -33.8% | 
COC(=O)C1=C(c2ccc(F)cc2OCc2ccccc2)C[C@@H]2CC[C@H]1N2C(=O)NC1Cc2ccccc2C1 |  | inconclusive: 32.6 µM [falling, single point]
CSc1nnc([C@@H](N)Cc2ccccc2)o1 | inconclusive: -7.71% | 
COc1ccc(NC(=O)N2CCC3(CC2)OCCO3)cc1OC | inconclusive: 4.26% | 
CCOP(=O)(C#CC(C)(C)C)C(O)(c1ccccc1)C(F)(F)F (stereo not drawn) |  | inconclusive: 16.4 µM [falling, single point]
CN1/C(=C\C=C2C(=O)NC(=S)NC2=O)C(C)(C)c2ccccc21 | inconclusive: -26.6% | 

Some of the entries so far, with each value named.
O=P(Oc1ccccc1)(Oc1ccccc1)C(Nc1ccccc1)c1ccccc1 (stereo not drawn)
  lipid storage change, negative = inhibition: inconclusive: 1.73%
CCOP(=O)(C#CC(C)(C)C)C(O)(c1ccccc1)C(F)(F)F (stereo not drawn)
  Potency: inconclusive: 16.4 µM [falling, single point]
